Results are given in words; binding and its absence hold for the method and conditions named. Some entries that bind do so weakly or less than the wild type.
How the values were obtained:
[1] = target: TrkA extracellular region (33-417) protein comprising human Fc (ACROBiosystems TRA-H5259) (human) (UniProt P04629); test: ELISA, coated human TrkA (33-417)-hFc
[2] = target: TrkA extracellular region (33-417) protein comprising human Fc (ACROBiosystems TRA-H5259) (human) (UniProt P04629); test: ELISA, coated human TrkA extracellular region protein
[3] = target: TrkA extracellular region (33-417) protein comprising human Fc (ACROBiosystems TRA-H5259) (human) (UniProt P04629); test: ELISA, plate coated with human TrkA extracellular region protein, HRP goat anti-mouse Fc detection

The chains behind the UniProt entries cited, without tags or fusion partners. Residues count along the entry.
UniProt P04629, residues 33-417: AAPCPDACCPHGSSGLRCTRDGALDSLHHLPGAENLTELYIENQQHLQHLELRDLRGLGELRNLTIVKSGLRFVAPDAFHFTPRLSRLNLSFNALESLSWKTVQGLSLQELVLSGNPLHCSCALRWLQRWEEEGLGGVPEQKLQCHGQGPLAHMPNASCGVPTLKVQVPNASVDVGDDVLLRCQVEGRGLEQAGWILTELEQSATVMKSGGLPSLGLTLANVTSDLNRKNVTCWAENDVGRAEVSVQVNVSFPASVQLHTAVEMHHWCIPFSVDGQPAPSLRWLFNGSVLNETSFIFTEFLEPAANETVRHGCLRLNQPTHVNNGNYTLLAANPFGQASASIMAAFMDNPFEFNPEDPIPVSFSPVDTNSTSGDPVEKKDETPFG

Measured: binding

B1: anti-TrkA antibody 5A3 (antibody, V domains shown)
VH: QVQLQQSGAELMKPGASVKISCKAIGYTFSRYWIEWVKQRPGHGLEWIGEILPGRGVTNYNENFKGKATFTVDISSTTTYIQFSSLTSEDSAVYYCARSNYGDYDFWGQGTSLTVSS
VL: QTVVTQESALTTSPGETVTLTCRSSSGAVTTSNHANWVQEKPDHLFTSLMGGTNNRAPGVPARFSGSLIGDKAALTITGAQTEDEAIYFCALWYSNHWVFGGGTKLTVL
notes: Murine monoclonal antibody purified from hybridoma medium by protein G
binds: [1] | [2] | [3]

B2: anti-TrkA antibody 11G8 (antibody, V domains shown)
VH: QVQLQQPGAELVKPGASVKLSCKASGYTFTSYWMHWVKQRPGQGLEWIGEINPNNGLTNYDEKFKTKATLTIDKSSRTAYIQLSSLTSEDSAVYYCAKYGNYVAFAFWGQGTLVTVSA
VL: DIQMTQSPASLSATVGETVTITCRASENIYSYVAWYQQKQGKSPQLLVHNAKTLAEGVPSRFSGSGSGTQFSLKINGLHPEDFGSYYCQHHYGIPLTFGAGTKLELK
notes: as for B1
binds: [1] | [2] | [3]

B3: anti-TrkA antibody 33H5 (antibody, V domains shown)
VH: QVQLQQPGAELVKPGASVQLSCKASGYTFTSYWIHWVKQRPGQGLEWIGEINPNNGLTNYIEKFKNKATLTIDKSSNTAYMQLSGLTPEDSAVYYCAKYGNYVAFAYWGQGTLVTVSA
VL: DIQMTQSPASLSASVGDTVTITCRASENIYTYLAWYQQKQGKSPQLLVHNTKTLAEGVPSRFSGSGSGTQFSLKISSLQPEDFGTYYCQHHYGVPLTFGAGTKLELK
notes: as for B1
binds: [1] | [2] | [3]

B4: anti-TrkA antibody 40D6 (antibody, V domains shown)
VH: QVQLQQSGTELMKPGASVKISCKATGYTFSRYWIEWVKQRPGHGLEWIGEILPGRSSTNYNEKFKGKATFTADTSSNTAYMQLSSLTSEDSAVYYCTRVSQLHIYFDYWGQGTTVTVSS
VL: DIVMTQVVPSVPVTPGESVSISCRSSKSLLHSNGNTYLYWFQQRPGQSPQLLIYRMSNLASGVPDRFSGSGSGTAFTLRISRVEAEDVAFYYCMQHLEFPLTFGAGTKLELK
notes: as for B1
binds: [1] | [2] | [3]

B5: anti-TrkA antibody 42A11 (antibody, V domains shown)
VH: QVQLQQPGAELVKPGASVKLSCKASGYTFTNYWMHWVKQRPGQGLEWIGEIYPSNGRTNYNEKFKTKATLTVDKSSSTAYMHLSSLTSEDSAVYYCAGSRYDAMDFWGQGTSVTVSS
VL: QIVLTQSPAIMSASPGEKVTMTCSASSIISYMHWYQQKSGTSPKRWIYDTSKLASGVPARFSGSGSGTSYSLTISGMEAEDAATYYCHQWTSNPLTFGGGTKLELK
notes: as for B1
binds: [1] | [2] | [3]

B6: anti-TrkA antibody 42H6 (antibody, V domains shown)
VH: QVQLQQPGVELVKPGASVKLSCKTSGYTFTSYWMHWVKQRPGQGLEWIGEIYSSNGLTNYNEKFKNKATLTVDKSSSTAYMQLTSLTSEDSAIYYCARHWYVFLDHWGQGTTLTVSS
VL: QAVVTQESALTTSPGETVTLTCRSSTGAVTTSNHANWVQEKPDHLFTGLIGGINNRAPGVPARFSGSLIGDKAALTITGAQTEDEAIYFCALWYSNHWVFGGGTRLTVL
notes: as for B1
binds: [1] | [2] | [3]

From patent US12590158 (XIYUAN ANJIAN MEDICINE SHANGHAI, dated 2026)
